Earlier results in patent publication US10030002B2, “Coumarin derivative for detection of cysteine and process for the synthesis thereof” (COUNCIL OF SCIENTIFIC & INDUSTRIAL RESEARCH, priority 2015, dated 2018).
For at least one compound, name, drawing or mass did not settle the structure.

Details: fluorescein in 0.1M NaOH, literature reference; cited from earlier work

O=C1OC2(c3ccc(O)cc3Oc3cc(O)ccc32)c2ccccc21 [fluorescein]
fluorescence quantum yield (Φf) of the reference: 0.92
